Experimental data reported in the supplement of paper PMC12067093, “Discovery and optimisation of a covalent ligand for TRIM25 and its application to targeted protein ubiquitination” (Chemical Science, 2025).
The other results are listed elsewhere or left out.

Protein sequences, listed by entry. Tags and fused reporters are not part of them. Lines headed by an entry give the natural chain unless they say otherwise; changes in a name come on top.
UniProt Q93063: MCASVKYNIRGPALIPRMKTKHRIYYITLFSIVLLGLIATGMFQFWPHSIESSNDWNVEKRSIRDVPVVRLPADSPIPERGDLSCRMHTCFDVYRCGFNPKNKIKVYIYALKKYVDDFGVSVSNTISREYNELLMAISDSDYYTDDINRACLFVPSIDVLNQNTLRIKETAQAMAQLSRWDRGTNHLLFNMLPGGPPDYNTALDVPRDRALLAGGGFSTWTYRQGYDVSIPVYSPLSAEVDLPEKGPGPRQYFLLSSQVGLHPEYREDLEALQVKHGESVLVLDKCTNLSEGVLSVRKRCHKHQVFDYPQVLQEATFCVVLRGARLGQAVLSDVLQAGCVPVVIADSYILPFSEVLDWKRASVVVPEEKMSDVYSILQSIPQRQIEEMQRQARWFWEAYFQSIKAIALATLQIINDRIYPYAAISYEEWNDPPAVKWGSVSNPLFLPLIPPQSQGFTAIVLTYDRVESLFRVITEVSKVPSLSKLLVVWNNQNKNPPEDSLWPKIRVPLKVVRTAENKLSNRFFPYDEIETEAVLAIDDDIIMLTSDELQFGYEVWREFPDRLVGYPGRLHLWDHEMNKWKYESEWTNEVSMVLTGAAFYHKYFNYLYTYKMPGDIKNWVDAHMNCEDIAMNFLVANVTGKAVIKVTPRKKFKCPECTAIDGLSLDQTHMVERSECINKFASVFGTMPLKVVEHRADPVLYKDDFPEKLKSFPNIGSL
UniProt Q9Y624, whole entry, looked up, stated change not applied: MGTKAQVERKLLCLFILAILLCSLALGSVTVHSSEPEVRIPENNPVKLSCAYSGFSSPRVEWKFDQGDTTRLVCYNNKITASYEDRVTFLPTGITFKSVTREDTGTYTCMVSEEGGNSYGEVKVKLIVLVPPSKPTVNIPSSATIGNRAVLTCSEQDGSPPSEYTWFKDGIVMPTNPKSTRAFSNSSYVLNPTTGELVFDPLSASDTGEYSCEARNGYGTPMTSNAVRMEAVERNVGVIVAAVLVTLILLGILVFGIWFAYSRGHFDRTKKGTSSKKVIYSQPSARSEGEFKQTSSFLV
UniProt Q9NZB2: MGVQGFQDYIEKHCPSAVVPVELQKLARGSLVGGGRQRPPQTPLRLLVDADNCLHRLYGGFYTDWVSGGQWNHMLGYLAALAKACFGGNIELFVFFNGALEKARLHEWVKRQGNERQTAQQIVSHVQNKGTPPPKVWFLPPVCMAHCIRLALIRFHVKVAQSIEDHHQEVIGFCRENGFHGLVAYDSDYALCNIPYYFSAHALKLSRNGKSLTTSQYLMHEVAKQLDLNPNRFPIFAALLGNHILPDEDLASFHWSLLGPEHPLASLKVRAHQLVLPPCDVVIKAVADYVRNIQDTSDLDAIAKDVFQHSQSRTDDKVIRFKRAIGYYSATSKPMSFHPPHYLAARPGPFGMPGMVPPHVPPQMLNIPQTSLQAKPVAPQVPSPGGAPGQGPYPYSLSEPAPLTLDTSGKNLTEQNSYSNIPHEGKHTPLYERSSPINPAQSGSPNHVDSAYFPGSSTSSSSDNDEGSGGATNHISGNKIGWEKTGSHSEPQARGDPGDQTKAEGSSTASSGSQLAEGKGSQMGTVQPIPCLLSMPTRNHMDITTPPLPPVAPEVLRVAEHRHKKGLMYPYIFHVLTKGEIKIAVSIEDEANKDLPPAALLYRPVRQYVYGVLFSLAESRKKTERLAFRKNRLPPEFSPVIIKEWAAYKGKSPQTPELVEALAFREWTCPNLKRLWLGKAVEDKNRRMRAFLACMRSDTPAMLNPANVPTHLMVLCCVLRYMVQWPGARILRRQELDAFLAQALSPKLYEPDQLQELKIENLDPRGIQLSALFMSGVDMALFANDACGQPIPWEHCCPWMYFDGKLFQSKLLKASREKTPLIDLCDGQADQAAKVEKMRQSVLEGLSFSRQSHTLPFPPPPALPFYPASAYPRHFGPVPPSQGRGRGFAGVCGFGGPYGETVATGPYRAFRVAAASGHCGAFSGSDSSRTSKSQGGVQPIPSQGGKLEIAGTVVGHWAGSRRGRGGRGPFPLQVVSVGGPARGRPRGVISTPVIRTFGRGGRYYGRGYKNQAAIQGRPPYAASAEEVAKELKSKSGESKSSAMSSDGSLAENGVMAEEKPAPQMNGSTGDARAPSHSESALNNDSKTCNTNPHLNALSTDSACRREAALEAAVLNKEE
UniProt Q01469, whole entry, looked up: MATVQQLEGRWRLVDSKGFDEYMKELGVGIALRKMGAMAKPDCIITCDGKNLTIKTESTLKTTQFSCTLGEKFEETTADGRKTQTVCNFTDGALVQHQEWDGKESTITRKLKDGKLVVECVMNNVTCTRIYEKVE
UniProt Q96A65: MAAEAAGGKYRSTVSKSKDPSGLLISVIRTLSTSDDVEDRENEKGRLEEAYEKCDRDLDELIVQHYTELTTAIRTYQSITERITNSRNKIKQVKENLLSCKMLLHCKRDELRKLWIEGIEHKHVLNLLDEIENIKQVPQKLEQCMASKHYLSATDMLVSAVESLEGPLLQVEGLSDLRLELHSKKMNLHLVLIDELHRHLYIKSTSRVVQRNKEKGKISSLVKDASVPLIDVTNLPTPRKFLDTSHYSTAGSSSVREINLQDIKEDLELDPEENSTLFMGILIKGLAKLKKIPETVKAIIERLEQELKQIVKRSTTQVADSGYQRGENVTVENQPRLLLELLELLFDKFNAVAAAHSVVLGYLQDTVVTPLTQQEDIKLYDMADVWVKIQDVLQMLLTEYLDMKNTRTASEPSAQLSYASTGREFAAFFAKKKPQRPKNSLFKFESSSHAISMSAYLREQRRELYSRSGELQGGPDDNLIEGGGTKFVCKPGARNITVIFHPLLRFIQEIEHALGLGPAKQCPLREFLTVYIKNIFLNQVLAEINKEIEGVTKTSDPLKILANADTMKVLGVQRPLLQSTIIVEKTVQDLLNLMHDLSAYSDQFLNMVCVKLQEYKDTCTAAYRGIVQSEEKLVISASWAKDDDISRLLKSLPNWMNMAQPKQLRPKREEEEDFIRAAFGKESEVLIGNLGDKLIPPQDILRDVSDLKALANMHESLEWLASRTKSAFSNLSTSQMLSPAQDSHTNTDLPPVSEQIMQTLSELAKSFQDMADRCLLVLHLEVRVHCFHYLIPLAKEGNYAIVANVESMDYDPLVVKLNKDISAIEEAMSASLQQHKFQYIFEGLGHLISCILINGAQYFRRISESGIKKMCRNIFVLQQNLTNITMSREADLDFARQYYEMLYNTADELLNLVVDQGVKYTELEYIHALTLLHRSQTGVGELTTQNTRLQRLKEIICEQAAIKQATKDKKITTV
UniProt Q8TAG9: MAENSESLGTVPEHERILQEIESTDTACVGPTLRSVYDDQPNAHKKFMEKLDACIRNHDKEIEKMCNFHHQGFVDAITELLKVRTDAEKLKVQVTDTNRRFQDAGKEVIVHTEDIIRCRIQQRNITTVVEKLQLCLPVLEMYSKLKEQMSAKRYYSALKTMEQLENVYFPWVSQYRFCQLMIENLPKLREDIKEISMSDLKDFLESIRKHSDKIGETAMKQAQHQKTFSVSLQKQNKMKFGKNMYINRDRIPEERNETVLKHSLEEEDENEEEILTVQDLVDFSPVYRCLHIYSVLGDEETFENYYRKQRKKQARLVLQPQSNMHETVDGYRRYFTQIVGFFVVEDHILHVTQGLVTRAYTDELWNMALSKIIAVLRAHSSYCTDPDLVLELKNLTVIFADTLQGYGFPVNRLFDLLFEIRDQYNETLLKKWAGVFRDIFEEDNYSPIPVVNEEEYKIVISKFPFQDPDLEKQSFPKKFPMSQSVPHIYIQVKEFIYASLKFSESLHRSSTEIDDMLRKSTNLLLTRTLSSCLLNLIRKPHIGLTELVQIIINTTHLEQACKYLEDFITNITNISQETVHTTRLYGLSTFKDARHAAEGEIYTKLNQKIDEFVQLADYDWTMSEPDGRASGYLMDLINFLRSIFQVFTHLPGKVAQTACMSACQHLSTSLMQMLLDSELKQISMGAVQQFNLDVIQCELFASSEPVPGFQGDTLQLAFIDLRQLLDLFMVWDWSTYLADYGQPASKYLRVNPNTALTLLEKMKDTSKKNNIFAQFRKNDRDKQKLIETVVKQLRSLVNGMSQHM
UniProt Q13158: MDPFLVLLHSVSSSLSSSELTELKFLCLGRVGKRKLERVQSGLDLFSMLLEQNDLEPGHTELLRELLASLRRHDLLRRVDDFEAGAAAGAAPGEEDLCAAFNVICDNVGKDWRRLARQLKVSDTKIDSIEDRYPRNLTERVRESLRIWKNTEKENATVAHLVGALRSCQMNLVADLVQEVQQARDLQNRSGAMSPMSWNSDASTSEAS
UniProt P19447: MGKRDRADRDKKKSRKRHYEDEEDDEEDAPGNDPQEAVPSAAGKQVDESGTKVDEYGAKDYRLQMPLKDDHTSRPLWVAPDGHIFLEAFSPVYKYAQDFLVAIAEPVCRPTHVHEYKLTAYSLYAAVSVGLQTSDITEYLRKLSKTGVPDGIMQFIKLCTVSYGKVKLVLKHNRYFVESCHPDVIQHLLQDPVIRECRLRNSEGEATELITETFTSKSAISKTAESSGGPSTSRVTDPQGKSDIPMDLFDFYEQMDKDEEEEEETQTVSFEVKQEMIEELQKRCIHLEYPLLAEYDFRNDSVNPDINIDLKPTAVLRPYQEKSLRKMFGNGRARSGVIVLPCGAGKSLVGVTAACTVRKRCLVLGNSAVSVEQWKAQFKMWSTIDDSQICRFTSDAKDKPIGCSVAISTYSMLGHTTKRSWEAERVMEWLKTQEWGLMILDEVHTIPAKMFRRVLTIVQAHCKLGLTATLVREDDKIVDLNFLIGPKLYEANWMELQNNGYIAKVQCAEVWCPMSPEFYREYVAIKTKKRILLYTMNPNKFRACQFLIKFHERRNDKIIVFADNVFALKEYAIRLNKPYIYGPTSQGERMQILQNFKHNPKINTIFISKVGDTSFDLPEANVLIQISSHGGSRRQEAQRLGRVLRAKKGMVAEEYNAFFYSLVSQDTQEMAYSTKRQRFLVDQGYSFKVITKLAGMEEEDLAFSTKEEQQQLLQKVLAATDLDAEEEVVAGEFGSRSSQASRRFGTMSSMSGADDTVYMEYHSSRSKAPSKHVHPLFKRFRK
UniProt Q5T8I3: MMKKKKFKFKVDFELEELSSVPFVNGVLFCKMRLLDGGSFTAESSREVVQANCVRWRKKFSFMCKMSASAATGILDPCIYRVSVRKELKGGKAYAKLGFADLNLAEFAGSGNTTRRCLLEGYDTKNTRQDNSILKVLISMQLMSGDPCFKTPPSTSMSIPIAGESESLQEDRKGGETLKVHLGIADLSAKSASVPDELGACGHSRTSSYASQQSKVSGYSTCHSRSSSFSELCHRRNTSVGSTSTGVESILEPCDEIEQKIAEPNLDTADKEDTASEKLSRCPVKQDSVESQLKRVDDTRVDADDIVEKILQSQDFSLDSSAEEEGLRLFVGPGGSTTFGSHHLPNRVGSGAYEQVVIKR
UniProt Q9NX05: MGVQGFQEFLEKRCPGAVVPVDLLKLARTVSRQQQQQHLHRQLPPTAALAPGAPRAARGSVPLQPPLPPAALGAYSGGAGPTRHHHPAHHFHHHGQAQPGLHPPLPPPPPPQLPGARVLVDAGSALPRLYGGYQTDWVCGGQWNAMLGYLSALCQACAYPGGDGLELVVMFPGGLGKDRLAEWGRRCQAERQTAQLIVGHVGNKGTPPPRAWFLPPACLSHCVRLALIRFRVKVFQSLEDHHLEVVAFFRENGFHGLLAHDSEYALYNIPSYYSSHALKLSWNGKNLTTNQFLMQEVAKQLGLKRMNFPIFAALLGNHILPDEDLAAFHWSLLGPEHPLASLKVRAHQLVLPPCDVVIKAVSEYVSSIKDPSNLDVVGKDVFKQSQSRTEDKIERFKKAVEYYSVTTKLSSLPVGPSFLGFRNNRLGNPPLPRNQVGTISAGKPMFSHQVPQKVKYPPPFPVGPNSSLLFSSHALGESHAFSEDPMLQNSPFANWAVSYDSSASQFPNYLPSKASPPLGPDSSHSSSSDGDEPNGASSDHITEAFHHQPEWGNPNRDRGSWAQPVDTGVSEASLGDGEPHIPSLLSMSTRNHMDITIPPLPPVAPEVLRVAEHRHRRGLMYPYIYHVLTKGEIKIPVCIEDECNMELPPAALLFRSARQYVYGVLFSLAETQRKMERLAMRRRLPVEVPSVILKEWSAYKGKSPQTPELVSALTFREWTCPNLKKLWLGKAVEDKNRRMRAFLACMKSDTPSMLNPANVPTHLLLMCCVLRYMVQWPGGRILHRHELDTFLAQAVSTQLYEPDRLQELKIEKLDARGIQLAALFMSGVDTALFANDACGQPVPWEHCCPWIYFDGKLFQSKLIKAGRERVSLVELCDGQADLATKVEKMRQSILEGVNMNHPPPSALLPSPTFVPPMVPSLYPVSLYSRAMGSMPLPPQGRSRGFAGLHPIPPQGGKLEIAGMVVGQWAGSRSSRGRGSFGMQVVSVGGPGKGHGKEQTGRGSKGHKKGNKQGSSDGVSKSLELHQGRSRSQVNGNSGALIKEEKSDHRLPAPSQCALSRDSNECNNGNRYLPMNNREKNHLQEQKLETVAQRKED

Compound: CC1Cc2ccccc2N1C(=O)C1CCCN(C1)C(=O)CCl (mixture of isomers) [TRIM25 ligand 11 (diastereomer mixture)]
Experiment: probe-labelled cysteine peptide fold change vs DMSO (competition) (log2 fold change); higher = less target engagement (more negative = stronger competition)
Details: 10 µM; THP-1; incubation time: 4 h
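Further: competitive chemoproteomic profiling in live THP-1 cells with an iodoacetamide desthiobiotin (IA-DTB) probe, comparing probe-labelled peptide intensities in compound-treated cells against DMSO-treated controls.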

Target	probe-labelled cysteine peptide fold change
EXT2_Q93063_657_CPECTAIDGLSLDQTHMVER (UniProt Q93063)	-0.118
F11R_Q9Y624_50_LSCAYSGFSSPR (UniProt Q9Y624)	-0.0813
FAM120A_Q9NZB2_53_LLVDADNCLHR (UniProt Q9NZB2)	0.146
FABP5_Q01469_120+127_LVVECVMNNVTCTR (UniProt Q01469)	0.0776
EXOSC5_Q9NQT4_33_HFACEQNLLSRPDGSASFLQGDTSVLAGVYGPAEVK (UniProt Q9NQT4)	0.193
ERLIN1_O75477_128_IHHELNQFCSAHTLQEVYIELFDQIDENLK (UniProt O75477)	0.216
EXOC4_Q96A65_957_EIICEQAAIK (UniProt Q96A65)	-0.0169

Same assay, conditions: 50 µM; THP-1; incubation time: 4 h

Target	probe-labelled cysteine peptide fold change
EXOC6_Q8TAG9_66_MCNFHHQGFVDAITELLK (UniProt Q8TAG9)	-0.048
FADD_Q13158_168_SCQMNLVADLVQEVQQAR (UniProt Q13158)	-0.425
ERCC3_P19447_284_CIHLEYPLLAEYDFR (UniProt P19447)	0.08
FAM102B_Q5T8I3_53_EVVQANCVR (UniProt Q5T8I3)	0.158
FADS1_O60427_407_VAPLVQSLCAK (UniProt O60427)	-0.124
ERMP1_Q7Z2K6_204+222_DGAQHAVLANCHFDSVANSPGASDDAVSCSVMLEVLR (UniProt Q7Z2K6)	0.0365
ERCC2_P18074_155_AQYQHDTSLPHCR (UniProt P18074)	-0.0603
FAM120C_Q9NX05_745_AFLACMK (UniProt Q9NX05)	-0.00967
EXOSC10_Q01780_288_PQPQLYRPIEETPCHFISSLDELVELNEK (UniProt Q01780)	0.148

A portion taken from the entries so far, for reference:
Target	probe-labelled cysteine peptide fold change
ERCC3_P19447_284_CIHLEYPLLAEYDFR (UniProt P19447)	0.08
FAM102B_Q5T8I3_53_EVVQANCVR (UniProt Q5T8I3)	0.158
